Measured values: US12138252B2, “Multikinase inhibitors of VEGF and TGF beta and uses thereof” (AIVIVA BIOPHARMA, INC., priority 2017, dated 2024)
At least one structure is not confirmed: it was looked up by name or label, or the drawing left a doubt.

How the values were obtained:
TGF-beta 1 = assay: Dermal TGFb1 levels (ELISA) after linear incisional wound in minipigs; assay type: in vivo, Gottingen Minipigs; settings: minipig incisional wound, approximately 16 mg intradermal once, biopsies days 4, 7, 9, ELISA, FIG. 5
Excerpt: The purpose of this study was to evaluate the topical effects of axitinib, nintedanib, sorafenib and lenvatinib when administered via intradermal injection to the dorsal skin along linear incisions of minipigs. Linear incisional wound was made to elicit inflammatory and wound healing process in the skin. After dosing, animals were observed postdose for 9 days to assess the levels of TGFb1 expressions in the skin.
Three male Gottingen Minipigs® dosed once via intradermal injection along the edges of each of the linear incision wound sites for each animal (wounds on the dorsum, perpendicular to the spine, approximately 3 cm in length and 3 cm distance from the spine). Each incisional wound received approximately 16 mg of the test compound intradermally once along both sides of the linear wound.
On days of 4, 7, and 9 post-dosing, one 4 mm dermal punch biopsy was collected for each incisional wound and processed for TGF-beta 1 analysis with ELISA, using a commercial kit (e.g., the kit from Thermo Fisher or other vendors).

rabbit ear wound = assay: Histopathology of rabbit ear wound (neovascularization, fibrosis, re-epithelialization); assay type: in vivo, New Zealand white rabbits; settings: intradermal 1%
Method: (§1) The objective of this study was to examine the effect of test compounds on wound healing and TGF beta expression after dermal injury in a rabbit ear hypertrophic scar model.
(§2) In New Zealand white rabbits, maintained under a surgical plane of anesthesia, trauma stimulation of the skin on the ventral surface of both ears is initiated on Day 1. Trauma sites are evaluated on Days 8, 15, 22, 29, 36, and 43. On days 15 and 29, each site is dosed with test compounds (e.g., 1% w/w, 100 μl) by intradermal or intralesional injections.
At necropsy, each treatment site was harvested and preserved for hematoxylin and […] and Mason's trichrome stainings. Each lesion was examined histologically and graded for neovascularization, fibrosis and re-epithelialization using a five-step/severity grading system (minimal, mild, moderate, marked, and severe). The average total score is an aggregation of these microscopic findings relating to an inflammatory response.

[1] = system: LL37-induced inflammation; assay: LL37-induced dermal inflammation model in mice, histopathology and CD4/CD8 immunostaining; assay type: in vivo; settings: intradermal LL37 induction, single intradermal injection 1.6 mg, FIG. 2
Method: In our study, mice were injected subcutaneously with 40 μL of LL-37 (3.3 mg/mL) to induce inflammatory reactions. Immediately following the LL-37 injection, axitinib, nintedanib, and lenvatinib were individually administered as a single intradermal injection (1.6 mg). LL-37 injection was repeated every 12 hours for a total of 4 injections. Endotoxin-free water and dexamethasone (3 mg/kg by intraperitoneal injection, twice), respectively, were used as negative and positive control groups.
At 48 hours after the initial LL-37 injection, the dorsal skin was photographed, and the severity of skin lesions were scored for redness and measured for areas of involvement.
Mice were then anaesthetized, and tissue samples of lesion sites were excised and fixed for H&E stainings and immunohistochemical analysis. Markers for inflammation (CD4 and CD8) were determined using specific antibodies. TGF beta levels are measured by mRNA expression using qPCR.
The tissue samples were analyzed for inflammation characteristics. Histopathology endpoints included inflammation, and CD4+ and CD8+ T-lymphocyte immunostaining. For inflammation scores, tissues were examined histologically and scored for inflammatory cell infiltrate.

TGF beta1 mRNA = TGF beta1 mRNA expression (qRT-PCR) in rabbit ear hypertrophic scar model; assay type: in vivo, New Zealand white rabbits; settings: 1% w/w 100 μl intradermal on days 15 and 29, Day 43, FIG. 6
Method: as §1, §2
Animals are euthanized on Day 43, and the trauma sites are harvested and frozen for TGF beta analysis using quantitative RT-PCR (qRT-PCR) (e.g., A. K. Johnson et al., Dev. Comp. Immunol., 2006; 30(5): 473-84). TGF beta1 mRNA expression levels in treated trauma samples are compared to the expression level in the untreated trauma sample.

SMILES	suppression of TGF beta 1 expression in skin (TGF-beta 1)	angiogenesis / neovascularization compared with untreated wounds (words) (rabbit ear wound)	fibrosis compared with untreated wounds (words) (rabbit ear wound)	angiogenesis / neovascularization compared with untreated wounds (words) (rabbit ear wound; listed as Axitinib)	inflammation score (inflammatory cell infiltrate) [1]	mean folds of TGF beta mRNA expression vs untreated wound sample (TGF beta1 mRNA)
CNC(=O)c1ccccc1Sc1ccc2c(/C=C/c3ccccn3)n[nH]c2c1 [axitinib]	very effective	decreased angiogenesis	decreased angiogenesis and fibrosis	less neovascularization	prominent reductions	lower than the expression level in the untreated wound sample
CCN(CC)CCNC(=O)c1c(C)[nH]c(/C=C2\C(=O)Nc3ccc(F)cc32)c1C [sunitinib]	–	do not show any reduction in angiogenesis	–	–	–	lower than the expression level in the untreated wound sample
